Results taken from PMC4410016 (Cell reports, 2015).

What was measured:
MtrF [1] = molecular target: MtrF (Neisseria gonorrhoeae, UniProt Q9RNX2); test: isothermal titration calorimetry; type: binding
MtrF [2] = molecular target: MtrF (Neisseria gonorrhoeae, UniProt Q9RNX2, W420A); test: biochemical

## Nc1ccc(S(N)(=O)=O)cc1 [sulfanilamide]
MtrF [1]
  Kd: 1.14 ± 0.01 µM
MtrF [2]
  Kd: 6.8 ± 1.49 µM
